The list is a part of this screen's results and no random one: it is rich in T/C values a quarter to a half above the control, in often repeated tests (any T/C) and in doses without a T/C. Further doses and runs are listed elsewhere. T/C gives the treated animals as a percentage of the vehicle group. Some entries give survivors of the animals treated and no T/C: the source files T/C as zero there, which appears to mark a toxic dose or a test without result, not a measured value. Some doses without a T/C left all or most animals alive at the check, yet need not have been tolerated: the source hardly ever lists a survival T/C far under the control, and the zero likely stands for such cases as well. Survivors were counted at the toxicity check, usually on the fifth day, unless a day is given; later deaths do not show. Schedules are NCI's codes, taken here to give the interval after Q, in days (D) or hours (H), and the number of doses after X. Signs of the kind (2×) say how often a value occurs here. For survival time, the PubChem record calls one and a half times the control and up active, and a quarter to a half above the control has no call in these data; cut-offs in other NCI protocols can differ. Some T/C values are followed by the survivors on the day toxicity was checked, most often the fifth; where none is given, no animal had died by that day. Some entries were tested several times; the results are listed from low to high. Bridge positions count the residues as written; N and C are the ends. Square brackets hold non-standard residues; d marks the D form. Peptide text beside a SMILES is read from it. NMeV = CN[CH](C(=O)O)C(C)C; Sar = CNCC(=O)O
Tested on: BDF1 mice, B16 melanoma ip, median survival T/C
Assay: NCI In Vivo Anticancer Drug Screen. Data for tumor model B16 Melanoma (intraperitoneal) in B6D2F1 (BDF1) mice
Settings: T/C endpoint: median survival time, higher T/C = longer survival
In short: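 Compounds were tested in mice carrying transplantable tumors. Survival or tumor size was recorded, and each value is the treated-group measurement (T) divided by that of the vehicle-treated control group (C).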

[1] = dose: 100.0 mg/kg/injection, schedule: Q01DX009 (ip), vehicle: saline with Tween-80
[2] = dose: 25.0 mg/kg/injection, schedule: Q01DX009 (ip), vehicle: saline with Tween-80
[3] = dose: 50.0 mg/kg/injection, schedule: Q01DX009 (ip), vehicle: saline
[4] = dose: 100.0 mg/kg/injection, schedule: Q01DX009 (ip), vehicle: saline
[5] = dose: 200.0 mg/kg/injection, schedule: Q01DX009 (ip), vehicle: saline
[6] = dose: 12.5 mg/kg/injection, schedule: Q01DX009 (ip), vehicle: saline
[7] = dose: 400.0 mg/kg/injection, schedule: Q01DX009 (ip), vehicle: Klucel (hydroxypropylcellulose) (HPC)

Nc1ncnc2nc[nH]c12
survivor count (dose: 32.0 mg/kg/injection, schedule: Q01DX009 (ip), vehicle: saline with Tween-80): 7 of 10 | survivor count (dose: 128.0 mg/kg/injection, schedule: Q01DX009 (ip), vehicle: saline with Tween-80): 8 of 10 | survivor count (dose: 256.0 mg/kg/injection, schedule: Q01DX009 (ip), vehicle: Klucel (hydroxypropylcellulose) (HPC)): 7 of 10 | survivor count (dose: 256.0 mg/kg/injection, schedule: Q01DX009 (ip), vehicle: saline with Tween-80): 7 of 10 | survivor count (dose: 512.0 mg/kg/injection, schedule: Q01DX009 (ip), vehicle: Klucel (hydroxypropylcellulose) (HPC)): 0 of 10 | survivor count (dose: 512.0 mg/kg/injection, schedule: Q01DX009 (ip), vehicle: saline with Tween-80): 5 of 10

CC(=O)Nc1ccn(C2OC(CO)C(O)C2O)c(=O)n1 (configuration not stated)
survivor count [1]: 9 of 10

CCC[CH2][Sn]1([CH2]CCC)[O]OC(c2ccc(C)cc2)[O]1 (configuration not stated)
survivor count (dose: 3.0 mg/kg/injection, schedule: Q01DX009 (ip), vehicle: saline with Tween-80): 8 of 10 | survivor count (dose: 6.25 mg/kg/injection, schedule: Q01DX009 (ip), vehicle: saline with Tween-80): 10 of 10 | survivor count (dose: 12.5 mg/kg/injection, schedule: Q01DX009 (ip), vehicle: saline with Tween-80): 0 of 10 | survivor count [2]: 0 of 10

CCOC(=O)N1CCN(CCCCCCOc2ccc(C3CCCCC3)cc2)CC1
survivor count [3]: 9 of 10 | survivor count [4]: 10 of 10 | survivor count [5]: 9 of 10

CC1C[N-]CC(C)C1.CC1C[N-]CC(C)C1.CC1C[N-]CC(C)C1.CC1C[N-]CC(C)C1.[Cl][Rh][Cl] (configuration not stated)
survivor count (dose: 12.0 mg/kg/injection, schedule: Q01DX009 (ip), vehicle: saline with Tween-80): 10 of 10 | T/C (dose: 12.0 mg/kg/injection, schedule: Q01DX009 (ip), vehicle: saline): 127 % of control | survivor count (dose: 24.0 mg/kg/injection, schedule: Q01DX009 (ip), vehicle: saline with Tween-80): 7 of 10

C[n+]1cc2c3ccccc3c(N)cc2c2ccccc21
T/C (dose: 6.25 mg/kg/injection, schedule: Q01DX009 (ip), vehicle: saline): 126 % of control | T/C [6]: 144 % of control | T/C (dose: 25.0 mg/kg/injection, schedule: Q01DX009 (ip), vehicle: saline): 132 % of control | survivor count [3]: 7 of 7 | survivor count [4]: 7 of 7

CN1c2c(nc(N)[nH]c2=O)NCC1CCNc1ccc(C(=O)NC(CCC(=O)O)C(=O)O)cc1 (configuration not stated)
survivor count (dose: 200.0 mg/kg/injection, schedule: Q01DX009 (ip), vehicle: Klucel (hydroxypropylcellulose) (HPC)): 8 of 10 | survivor count [7]: 10 of 10 | survivor count (dose: 800.0 mg/kg/injection, schedule: Q01DX009 (ip), vehicle: Klucel (hydroxypropylcellulose) (HPC)): 10 of 10 | T/C (dose: 800.0 mg/kg/injection, schedule: Q01DX009 (ip), vehicle: sodium bicarbonate): 127 % of control

CC[n+]1ccc(Nc2ccc(/C=C/c3ccc4cc(Nc5cc[n+](CC)cc5)ccc4[n+]3CC)cc2)cc1
survivor count (dose: 20.0 mg/kg/injection, schedule: Q01DX009 (ip), vehicle: saline): 0 of 10

CC(CCc1ccccc1)NN (configuration not stated)
T/C [6]: 132 % of control | survivor count [3]: 10 of 10 | survivor count [4]: 1 of 10 | survivor count [5]: 0 of 10 | survivor count (dose: 400.0 mg/kg/injection, schedule: Q01DX009 (ip), vehicle: saline): 0 of 10

CN1N=C(N)c2cn(C3OC(COP(=O)(O)O)C(O)C3O)c3ncnc1c23 (configuration not stated)
survivor count (dose: 12.5 mg/kg/injection, schedule: Q01DX009 (ip), vehicle: water): 10 of 10 | survivor count (dose: 25.0 mg/kg/injection, schedule: Q01DX009 (ip), vehicle: water): 10 of 10 | survivor count (dose: 50.0 mg/kg/injection, schedule: Q01DX009 (ip), vehicle: water): 10 of 10 | survivor count (dose: 100.0 mg/kg/injection, schedule: Q01DX009 (ip), vehicle: water): 8 of 10 | survivor count (dose: 200.0 mg/kg/injection, schedule: Q01DX009 (ip), vehicle: water): 0 of 10

C=C(C)C1CCC2(C=O)CCC3(C)C(CCC4C5(C)CCC(O)C(C)(C)C5CCC43C)C12 (configuration not stated)
survivor count (dose: 37.5 mg/kg/injection, schedule: Q01DX009 (ip), vehicle: Klucel (hydroxypropylcellulose) (HPC)): 10 of 10

CC(C)C1NC(=O)C(N)C(C)OC(=O)C(C(C)C)N(C)C(=O)CN(C)C(=O)C2CCCN2C1=O (configuration not stated) (tested in a mixture with another compound) (H-TVP[Sar][NMeV]; ester 1-C; configuration not given here)
survivor count (dose: 0.33 mg/kg/injection, schedule: Q01DX009 (ip), vehicle: water): 10 of 10 | survivor count (dose: 0.5 mg/kg/injection, schedule: Q01DX009 (ip), vehicle: water): 10 of 10 | survivor count (dose: 0.75 mg/kg/injection, schedule: Q01DX009 (ip), vehicle: water): 9 of 10 | T/C (dose: 100.0 micrograms/kg/injection, schedule: Q01DX009 (ip), vehicle: saline + alcohol): 132 % of control | T/C (dose: 150.0 micrograms/kg/injection, schedule: Q04DX003 (ip), vehicle: saline + alcohol): 136 % of control | T/C (dose: 300.0 micrograms/kg/injection, schedule: Q04DX003 (ip), vehicle: saline + alcohol): 144 % of control | T/C (dose: 600.0 micrograms/kg/injection, schedule: Q04DX003 (ip), vehicle: saline + alcohol): 131 and 134 % of control [9 of 10 alive]

ClC1C(Cl)C(Cl)C(Cl)C(Cl)C1Cl (configuration not stated)
survivor count [1]: 10 of 10 | survivor count [7]: 10 of 10

COc1cccc(/C=N/NC(=O)c2ccccc2N2CCCC2)c1O
survivor count (dose: 12.5 mg/kg/injection, schedule: Q01DX009 (ip), vehicle: olive oil, sesame oil, peanut oil): 10 of 10 | survivor count (dose: 25.0 mg/kg/injection, schedule: Q01DX009 (ip), vehicle: olive oil, sesame oil, peanut oil): 10 of 10 (2×) | survivor count (dose: 50.0 mg/kg/injection, schedule: Q01DX009 (ip), vehicle: olive oil, sesame oil, peanut oil): 10 of 10 | survivor count (dose: 100.0 mg/kg/injection, schedule: Q01DX009 (ip), vehicle: olive oil, sesame oil, peanut oil): 10 of 10 | survivor count (dose: 200.0 mg/kg/injection, schedule: Q01DX009 (ip), vehicle: olive oil, sesame oil, peanut oil): 10 of 10 | survivor count (dose: 400.0 mg/kg/injection, schedule: Q01DX009 (ip), vehicle: olive oil, sesame oil, peanut oil): 7 of 10

CCN1/C(=C/C=C/c2oc3ccccc3[n+]2CC)Oc2ccccc21
survivor count (dose: 0.04 mg/kg/injection, schedule: Q01DX009 (ip), vehicle: saline sonified): 3 of 6 | survivor count (dose: 0.08 mg/kg/injection, schedule: Q01DX009 (ip), vehicle: saline sonified): 2 of 6 | survivor count (dose: 0.15 mg/kg/injection, schedule: Q01DX009 (ip), vehicle: saline sonified): 2 of 6 | survivor count (dose: 0.3 mg/kg/injection, schedule: Q01DX009 (ip), vehicle: saline sonified): 0 of 6

CN1C=c2c3c(ccc2=C2C=CC4C=C5OCOC5=CC4=C21)OCO3 (configuration not stated)
survivor count (dose: 7.5 mg/kg/injection, schedule: Q01DX009 (ip), vehicle: saline): 6 of 6 | survivor count (dose: 15.0 mg/kg/injection, schedule: Q01DX009 (ip), vehicle: saline): 6 of 6 | survivor count (dose: 30.0 mg/kg/injection, schedule: Q01DX009 (ip), vehicle: saline): 4 of 6 | survivor count (dose: 60.0 mg/kg/injection, schedule: Q01DX009 (ip), vehicle: saline): 2 of 6

Cc1cccc(CN)n1
T/C [5]: 134 % of control [9 of 10 alive]

CCCC(=O)OCC1OC(n2cnc3c(=S)nc[nH]c32)C(OC(=O)CCC)C1OC(=O)CCC (configuration not stated)
survivor count [1]: 9 of 10 | survivor count (dose: 200.0 mg/kg/injection, schedule: Q01DX009 (ip), vehicle: saline with Tween-80): 10 of 10

O=S(=O)(/N=C1C=C/C(=N/S(=O)(=O)c2ccccc2)C2C3C=CC(C3)C/12)c1ccccc1 (configuration not stated)
survivor count (dose: 400.0 mg/kg/injection, schedule: Q04DX003 (ip), vehicle: Klucel (hydroxypropylcellulose) (HPC)): 9 of 10

O=C(/C(=N\Nc1ccc([N+](=O)[O-])cc1)c1ccccc1)c1ccccc1
survivor count [2]: 10 of 10

CC1(C)N=C(N)N=C(N)N1c1cccc(CCC(=O)Nc2ccc(S(=O)(=O)F)cc2)c1
T/C (dose: 15.0 mg/kg/injection, schedule: Q01DX009 (ip), vehicle: saline with Tween-80): 126 % of control
